Reference: patent publication US20220096517A1, “MicroRNA Compounds and Methods for Modulating MIR-10B Activity” (Regulus Therapeutics Inc., priority 2018, published 2022)
The name of at least one read-out is uncertain.

Test system: LN229 cells
Assay: caspase 3/7 activity (Caspase-Glo 3/7), LN229 cells
Type: cell-based, human
Conditions: RNAiMAX transfection, 48 hours, read-out: LN229 caspase 3 activation assay IC50

With “UKAKCMAFGFGFGMUKAK (CAAATUCGGTTCTACAGGGTA; LNA/2'-F/2'-OMe modifications, chemistry not fully specified) [RG5658, anti-miR-10b modified oligonucleotide, 9 linked nucleosides]” the IC50 was 0.59 µM.
